Holding throughout (assay): EMSA supershift
For series [1], the target named is C/EBPα K2R-ER K298R,K302R (human) (UniProt P49715). The settings on record: K562 cells treated with 5 uM β-estradiol 45 min; 10 mM HEPES-KOH pH 7.9, 50 mM KCl, 2.5 mM MgCl2, 1 mM DTT, 10% glycerol, 1 ug BSA, 0.5 ug poly(dI-dC), 25 ul, on ice 20 min; 6% gel, 0.5x TBE, 4 °C; protein in an extract; residues 1-358; protein details: C-terminal ER ligand-binding domain fusion.

Chains of the proteins cited; added tags and fusions are not shown.
UniProt P49715, whole entry K298R/K302R: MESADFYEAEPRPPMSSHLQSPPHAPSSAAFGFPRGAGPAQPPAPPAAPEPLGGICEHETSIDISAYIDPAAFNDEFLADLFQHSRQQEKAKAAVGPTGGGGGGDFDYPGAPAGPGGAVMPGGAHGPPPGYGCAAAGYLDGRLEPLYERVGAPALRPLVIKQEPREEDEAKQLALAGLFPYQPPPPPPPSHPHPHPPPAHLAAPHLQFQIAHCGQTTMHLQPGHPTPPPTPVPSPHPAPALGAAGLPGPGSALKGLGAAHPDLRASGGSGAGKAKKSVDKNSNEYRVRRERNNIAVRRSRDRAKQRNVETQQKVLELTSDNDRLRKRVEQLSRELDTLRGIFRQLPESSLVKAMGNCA
UniProt P49715, whole entry K298Q/K302Q: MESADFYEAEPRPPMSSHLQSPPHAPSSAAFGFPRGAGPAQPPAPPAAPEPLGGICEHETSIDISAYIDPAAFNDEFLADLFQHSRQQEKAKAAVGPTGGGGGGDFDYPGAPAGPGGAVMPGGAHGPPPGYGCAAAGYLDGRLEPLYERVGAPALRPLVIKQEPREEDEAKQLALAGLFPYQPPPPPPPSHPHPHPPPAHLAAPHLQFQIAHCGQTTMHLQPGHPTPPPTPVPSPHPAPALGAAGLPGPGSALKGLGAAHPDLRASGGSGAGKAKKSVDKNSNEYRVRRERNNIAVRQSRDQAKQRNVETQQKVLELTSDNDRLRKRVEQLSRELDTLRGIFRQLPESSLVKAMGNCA

The target of series [2] is C/EBPα K2Q-ER K298Q,K302Q (human) (UniProt P49715). Particulars: K562 cells treated with 5 uM β-estradiol 45 min; 10 mM HEPES-KOH pH 7.9, 50 mM KCl, 2.5 mM MgCl2, 1 mM DTT, 10% glycerol, 1 ug BSA, 0.5 ug poly(dI-dC), 25 ul, on ice 20 min; 6% gel, 0.5x TBE, 4 °C; protein in an extract; residues 1-358; protein details: C-terminal ER ligand-binding domain fusion.
The target in series [3] is C/EBPα K2Q (no ER tag) K298Q,K302Q (human) (UniProt P49715). Particulars: 0.1 and 0.5 ug nuclear extract, minimal binding (main text: loss of DNA binding); 10 mM HEPES-KOH pH 7.9, 50 mM KCl, 2.5 mM MgCl2, 1 mM DTT, 10% glycerol, 1 ug BSA, 0.5 ug poly(dI-dC), 25 ul, on ice 20 min; 6% gel, 0.5x TBE, 4 °C; protein in an extract; residues 1-358.
Series [4] has as its target C/EBPα K2R (no ER tag) K298R,K302R (human) (UniProt P49715). Particulars: 0.1 and 0.5 ug nuclear extract; 10 mM HEPES-KOH pH 7.9, 50 mM KCl, 2.5 mM MgCl2, 1 mM DTT, 10% glycerol, 1 ug BSA, 0.5 ug poly(dI-dC), 25 ul, on ice 20 min; 6% gel, 0.5x TBE, 4 °C; protein in an extract; residues 1-358.

Construct, isoform or probe ends are uncertain for at least one entry. Results from cells or extracts need not show a direct contact. For some of these results: A weaker result is weaker than the reference pair of the same experiment.

Consider “CTAGGGCTTGCGCAATCTATATTCG / CGAATATAGATTGCGCAAGCCCTA [G-CSF receptor promoter C/EBP site oligonucleotide]”, for which the binding result in series [1] is recorded as “binds”; in series [2] it was “binds more weakly”; in series [3] it was “binds more weakly”; in series [4], “binds”.

These data come from paper PMC4814574.
